Taken from: PubChem BioAssay AID743454 (Peter MacCallum Cancer Centre, 2014)

- Assay: 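Genes whose loss kills vorinostat-resistant colon cancer cells under vorinostat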 (primary screen)
- System: human HCT116-VR colon cancer cells, selected for vorinostat resistance
- Knock-down reagent: siRNA pool against human genes, 40 nM siRNA pool
- Timing: vorinostat for 24 h, read-out about 72 h after transfection
- Conditions: vorinostat at 2.5 µM final
- Read-out: 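Two measures, CellTiter-Fluor viability and luminescent caspase 3/7 activity, each as fold change against same-plate mock wells, mean of duplicates, then screen-wide robust z-score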
- Scale: viability robust z-score: higher = more viable cells than screen typical; caspase robust z-score: higher = more caspase 3/7 activity than screen typical
- Hit rule: 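Hits are knock-downs in viability class RV1/RV2 or caspase class CA1/CA2, excluding ones that killed cells in the no-drug cell-count arm; hits then retested with single siRNAs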
The deposit covers about 18,000 reagents; shown is an unselected part. Of all reagents, 450 (2.5%) were called active. 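Single biological run; no consistent viability z cut-off exists, so the class columns, not z-scores, define the calls.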 Entries without a mark were called inactive. Reagent sequences are not shown.

gene knocked down,PubChem SID,viability hit class,caspase hit class,viability robust z-score,caspase robust z-score
FOXD4L3 (forkhead box D4 like 3),SID135625067,no change,no change,0.77,-0.65
FOXD4L3 (forkhead box D4 like 3),SID135625071,no change,no change,-0.66,0.09
NPNT (nephronectin),SID135624648,no change,no change,0.57,0.1
ATP5ME (ATP synthase membrane subunit e),SID152151550,no change,no change,-0.52,0.84
SERP1 (stress associated endoplasmic reticulum protein 1),SID152155557,no change,no change,-0.93,0.8
ACTR6 (actin related protein 6),SID152148284,no change,no change,0.79,-0.45
CRLF3 (cytokine receptor like factor 3),SID152153281,no change,no change,0.72,-0.73
MAP3K9 (mitogen-activated protein kinase kinase kinase 9),SID152152652,no change,no change,-1.75,-0.18
SPRY1 (sprouty RTK signaling antagonist 1),SID134326900,no change,no change,0.01,1.92
EFTUD2 (elongation factor Tu GTP binding domain containing 2),SID134323613,no change,no change,-3.27,-0.52
ZKSCAN1 (zinc finger with KRAB and SCAN domains 1),SID152151813,no change,no change,1.05,0.29
EPPK1 (epiplakin 1),SID152147795,no change,no change,1.77,2.12
ATXN2L (ataxin 2 like),SID152149522,no change,no change,0.68,-0.64
GYG2 (glycogenin 2),SID135621228,no change,no change,0.3,-0.77
HBEGF (heparin binding EGF like growth factor),SID134323401,no change,no change,-0.2,5.01
EIF5 (eukaryotic translation initiation factor 5),SID134324926,no change,no change,-1.82,2.42
CCL7 (C-C motif chemokine ligand 7),SID134312783,no change,no change,-1.6,1.37
LAMB3 (laminin subunit beta 3),SID152154426,no change,no change,-2.09,0.78
MNS1 (meiosis specific nuclear structural 1),SID134324813,no change,no change,-0.66,-1.05
CCNF (cyclin F),SID152147986,no change,no change,0.54,0.86
SOX12 (SRY-box transcription factor 12),SID134321220,no change,no change,-0.02,1.5
MARCHF6 (membrane associated ring-CH-type finger 6),SID134312052,no change,no change,-2.06,0.98
ZNF189 (zinc finger protein 189),SID134324938,no change,no change,0.2,-0.32
C8orf44 (chromosome 8 putative open reading frame 44),SID134324671,no change,no change,-0.88,0.48
ROBO2 (roundabout guidance receptor 2),SID152151678,no change,no change,0.22,1.66
TLNRD1 (talin rod domain containing 1),SID134318340,no change,no change,0.33,0.62
PTH2R (parathyroid hormone 2 receptor),SID135621058,no change,no change,-0.24,-0.01
KRTAP5-9 (keratin associated protein 5-9),SID135623893,no change,no change,-2.65,4.34
GATA4 (GATA binding protein 4),SID134313127,no change,no change,1.63,0.68
DUSP12 (dual specificity phosphatase 12),SID135621462,no change,no change,-1.51,-0.76
OXA1L (OXA1L mitochondrial inner membrane insertase),SID134316957,no change,no change,0.33,-1.23
MT4 (metallothionein 4),SID152149971,no change,no change,0.5,0.22
GPR37 (G protein-coupled receptor 37),SID134309960,no change,no change,0.06,-1.2
FCRL6 (Fc receptor like 6),SID152150306,no change,no change,1.11,0.08
CDK11B (cyclin dependent kinase 11B),SID152152958,no change,no change,-1.44,0.02
"TECR (trans-2,3-enoyl-CoA reductase)",SID152150354,no change,no change,-0.23,0.26
SLC16A9,SID134323103,no change,no change,-0.63,-0.07
SORL1 (sortilin related receptor 1),SID134310592,no change,no change,-0.25,-0.4
DUSP9 (dual specificity phosphatase 9),SID152156265,no change,no change,0.32,2.96
ABCF1 (ATP binding cassette subfamily F member 1),SID152155092,no change,no change,-1.64,-1.02
MLXIP (MLX interacting protein),SID152154668,no change,no change,0.32,-0.98
LUC7L3 (LUC7 like 3 pre-mRNA splicing factor),SID152153978,no change,no change,-1.46,-1.44
KLHDC9 (kelch domain containing 9),SID135623070,no change,no change,2.34,0.54
CRIM1 (cysteine rich transmembrane BMP regulator 1),SID134313362,no change (active),CA1 (caspase activation),-0.54,5.38
PCDHA1 (protocadherin alpha 1),SID152149473,no change,no change,0.02,-0.86
QPRT (quinolinate phosphoribosyltransferase),SID135620769,no change,no change,-0.5,0.28
ADORA2A (adenosine A2a receptor),SID152149997,no change,no change,0.91,-0.28
TMEM256 (transmembrane protein 256),SID134319786,no change,no change,-0.9,-0.59
RWDD3 (RWD domain containing 3),SID152150755,no change,no change,0.06,0.94
AP5Z1 (adaptor related protein complex 5 subunit zeta 1),SID135624502,no change,no change,0.76,-0.98
PXT1 (peroxisomal testis enriched protein 1),SID134320906,no change,no change,-0.11,-0.12
ACTC1 (actin alpha cardiac muscle 1),SID135622243,no change,no change,-0.12,-0.74
DCSTAMP (dendrocyte expressed seven transmembrane protein),SID135621629,no change,no change,0.28,-0.04
RPL19 (ribosomal protein L19),SID152153855,no change,no change,-3.8,-0.78
MRPS30 (mitochondrial ribosomal protein S30),SID135622480,no change,no change,0.74,0.38
ADGRL3 (adhesion G protein-coupled receptor L3),SID135621042,no change,no change,-0.2,0.04
NEMP1 (nuclear envelope integral membrane protein 1),SID135624621,no change,no change,-1.35,-1.15

In a second layout: 8 of the entries above
{"gene knocked down": "C8orf44 (chromosome 8 putative open reading frame 44)", "PubChem SID": "SID134324671", "viability hit class": "no change", "caspase hit class": "no change", "viability robust z-score": -0.88, "caspase robust z-score": 0.48}
{"gene knocked down": "ROBO2 (roundabout guidance receptor 2)", "PubChem SID": "SID152151678", "viability hit class": "no change", "caspase hit class": "no change", "viability robust z-score": 0.22, "caspase robust z-score": 1.66}
{"gene knocked down": "TLNRD1 (talin rod domain containing 1)", "PubChem SID": "SID134318340", "viability hit class": "no change", "caspase hit class": "no change", "viability robust z-score": 0.33, "caspase robust z-score": 0.62}
{"gene knocked down": "PTH2R (parathyroid hormone 2 receptor)", "PubChem SID": "SID135621058", "viability hit class": "no change", "caspase hit class": "no change", "viability robust z-score": -0.24, "caspase robust z-score": -0.01}
{"gene knocked down": "KRTAP5-9 (keratin associated protein 5-9)", "PubChem SID": "SID135623893", "viability hit class": "no change", "caspase hit class": "no change", "viability robust z-score": -2.65, "caspase robust z-score": 4.34}
{"gene knocked down": "GATA4 (GATA binding protein 4)", "PubChem SID": "SID134313127", "viability hit class": "no change", "caspase hit class": "no change", "viability robust z-score": 1.63, "caspase robust z-score": 0.68}
{"gene knocked down": "DUSP12 (dual specificity phosphatase 12)", "PubChem SID": "SID135621462", "viability hit class": "no change", "caspase hit class": "no change", "viability robust z-score": -1.51, "caspase robust z-score": -0.76}
{"gene knocked down": "OXA1L (OXA1L mitochondrial inner membrane insertase)", "PubChem SID": "SID134316957", "viability hit class": "no change", "caspase hit class": "no change", "viability robust z-score": 0.33, "caspase robust z-score": -1.23}
